The list shows only some results of the screen, not a fair sample: it is rich in T/C values a quarter to a half above the control, in often repeated tests (any T/C) and in doses without a T/C. Other doses and runs of a compound stand elsewhere. T/C: endpoint of the treated group in % of that of the vehicle group. Some entries give survivors of the animals treated and no T/C: the source holds a T/C of zero for them, seemingly a mark for toxic or unscored doses. Some doses without a T/C left all or most animals alive at the check, yet need not have been tolerated: the source hardly ever lists a survival T/C far under the control, and the zero likely stands for such cases as well. Survivors were counted at the toxicity check, usually on the fifth day, unless a day is given; later deaths do not show. Schedule codes are those of the source, taken here to give the interval after Q, in days (D) or hours (H), and the number of doses after X. Some schedules carry Z or #; the key to these is not given. For survival time, this PubChem deposit counts one and a half times the control or more as active, and values a quarter to a half above the control carry no call in these data; other NCI protocols may use other cut-offs. Some doses were run more than once; the results are listed from low to high. Some T/C values carry the count of animals alive at the toxicity check (mostly the fifth day); without a count, all were alive then.
Test system: L1210 leukemia ip in BDF1 mice, survival T/C
Test: NCI In Vivo Anticancer Drug Screen. Data for tumor model L1210 Leukemia (intraperitoneal) in B6D2F1 (BDF1) mice
Settings: T/C endpoint: mean survival time, higher T/C = longer survival
[1] = dose: 200.0 mg/kg/injection, schedule: Q01DX Z (ip), vehicle: methylcellulose (MC)
[2] = dose: 400.0 mg/kg/injection, schedule: Q04DX002 (ip), vehicle: Klucel (hydroxypropylcellulose) (HPC)
[3] = dose: 300.0 mg/kg/injection, schedule: Q01DX001 (ip), vehicle: other
[4] = dose: 200.0 mg/kg/injection, schedule: Q01DX009 (ip), vehicle: Klucel (hydroxypropylcellulose) (HPC)

`CSc1ncc(Br)c(Sc2nc(N)nc3nc[nH]c23)n1` was tested, and the T/C (dose: 1.5 mg/kg/injection, schedule: Q01DX Z (ip), vehicle: carboxymethylcellulose (CMC)) was 125 % of control, the T/C (dose: 4.0 mg/kg/injection, schedule: Q01DX Z (ip), vehicle: other) was 126 and 132 % of control and the T/C (dose: 5.2 mg/kg/injection, schedule: Q01DX001 (ip), vehicle: saline) was 139 % of control. The T/C (dose: 6.0 mg/kg/injection, schedule: Q01DX Z (ip), vehicle: carboxymethylcellulose (CMC)) was 140 and 147 % of control, the T/C (dose: 7.9 mg/kg/injection, schedule: Q01DX001 (ip), vehicle: saline) was 139 % of control and the T/C (dose: 8.0 mg/kg/injection, schedule: Q01DX Z (ip), vehicle: other) was 148 % of control. The T/C (dose: 12.0 mg/kg/injection, schedule: Q01DX Z (ip), vehicle: carboxymethylcellulose (CMC)) was 144 % of control, the T/C (dose: 12.0 mg/kg/injection, schedule: Q01DX Z (ip), vehicle: methylcellulose (MC)) was 144 % of control and the T/C (dose: 15.0 mg/kg/injection, schedule: Q01DX Z (ip), vehicle: carboxymethylcellulose (CMC)) was 142 % of control. For the same compound, the T/C (dose: 16.0 mg/kg/injection, schedule: Q01DX Z (ip), vehicle: other) was 134 and 148 % of control, the T/C (dose: 20.0 mg/kg/injection, schedule: Q01DX001 (ip), vehicle: saline with Tween-80) was 136 % of control and the T/C (dose: 22.0 mg/kg/injection, schedule: Q01DX001 (ip), vehicle: carboxymethylcellulose (CMC)) was 133 % of control. The T/C (dose: 22.5 mg/kg/injection, schedule: Q01DX Z (ip), vehicle: carboxymethylcellulose (CMC)) was 128 % of control, the T/C (dose: 24.0 mg/kg/injection, schedule: Q01DX Z (ip), vehicle: carboxymethylcellulose (CMC)) was 131 % of control and the T/C (dose: 32.0 mg/kg/injection, schedule: Q01DX Z (ip), vehicle: other) was 138 % of control. The T/C (dose: 33.0 mg/kg/injection, schedule: Q01DX001 (ip), vehicle: carboxymethylcellulose (CMC)) was 133 % of control, the T/C (dose: 50.0 mg/kg/injection, schedule: Q01DX001 (ip), vehicle: carboxymethylcellulose (CMC)) was 135 % of control and the survivor count (dose: 64.0 mg/kg/injection, schedule: Q01DX Z (ip), vehicle: other) was 6 of 6. For the same compound, the T/C (dose: 66.0 mg/kg/injection, schedule: Q01DX001 (ip), vehicle: saline with Tween-80) was 147 % of control, the T/C (dose: 75.0 mg/kg/injection, schedule: Q01DX001 (ip), vehicle: carboxymethylcellulose (CMC)) was 138 % of control and the survivor count (dose: 79.0 mg/kg/injection, schedule: Q01DX Z (ip), vehicle: carboxymethylcellulose (CMC)) was 6 of 6. The T/C (dose: 100.0 mg/kg/injection, schedule: Q01DX001 (ip), vehicle: carboxymethylcellulose (CMC)) was 142 % of control, the T/C (dose: 100.0 mg/kg/injection, schedule: Q01DX001 (ip), vehicle: saline) was 131 and 139 % of control and the survivor count (dose: 118.5 mg/kg/injection, schedule: Q01DX Z (ip), vehicle: carboxymethylcellulose (CMC)) was 6 of 6. The survivor count (dose: 128.0 mg/kg/injection, schedule: Q01DX Z (ip), vehicle: other) was 6 of 6, the survivor count (dose: 178.0 mg/kg/injection, schedule: Q01DX Z (ip), vehicle: carboxymethylcellulose (CMC)) was 6 of 6 and the survivor count [1] was 6 of 6. For the same compound, the survivor count (dose: 225.0 mg/kg/injection, schedule: Q01DX001 (ip), vehicle: saline) was 6 of 6 and the survivor count (dose: 340.0 mg/kg/injection, schedule: Q01DX001 (ip), vehicle: saline) was 6 of 6.
`CC1(C(Cl)(Cl)Cl)C=CC(O)C=C1` (stereo not drawn) was tested, and the survivor count (dose: 200.0 mg/kg/injection, schedule: Q04DX002 (ip), vehicle: Klucel (hydroxypropylcellulose) (HPC)) was 3 of 3, the survivor count (dose: 225.0 mg/kg/injection, schedule: Q01DX009 (ip), vehicle: Klucel (hydroxypropylcellulose) (HPC)) was 3 of 6 and the survivor count (dose: 335.0 mg/kg/injection, schedule: Q01DX009 (ip), vehicle: Klucel (hydroxypropylcellulose) (HPC)) was 4 of 6. For the same compound, the survivor count [2] was 3 of 3.
For `Nc1ccccc1SSc1ccccc1N`, the survivor count [2] was 1 of 3.
`CC(=O)N1CCn2nccc21` was tested, and the T/C (dose: 400.0 mg/kg/injection, schedule: Q01DX009 (ip), vehicle: water) was 134 and 136 % of control.
`O=C(C[n+]1ccccc1Br)c1cccc2ccccc12` was tested, and the survivor count (dose: 18.75 mg/kg/injection, schedule: Q01DX001 (ip), vehicle: other) was 0 of 6, the survivor count (dose: 37.5 mg/kg/injection, schedule: Q01DX001 (ip), vehicle: other) was 0 of 6 and the survivor count (dose: 75.0 mg/kg/injection, schedule: Q01DX001 (ip), vehicle: other) was 0 of 6. The survivor count (dose: 150.0 mg/kg/injection, schedule: Q01DX001 (ip), vehicle: other) was 0 of 6 and the survivor count [3] was 0 of 6.
For `CCCCC[C@H](O)/C=C/[C@@H]1[C@@H](C/C=C\CCCC(=O)O)[C@@H](O)C[C@H]1O`, the survivor count (dose: 40.0 mg/kg/injection, schedule: Q04DX002 (ip), vehicle: saline) was 0 of 3, the survivor count (dose: 80.0 mg/kg/injection, schedule: Q04DX002 (ip), vehicle: saline) was 1 of 3 and the survivor count (dose: 160.0 mg/kg/injection, schedule: Q04DX002 (ip), vehicle: saline) was 0 of 3. The survivor count (dose: 320.0 mg/kg/injection, schedule: Q04DX002 (ip), vehicle: saline) was 0 of 3.
In the case of `CN(C)CCC(O)(Cc1ccccc1)c1ccccc1` (stereo not drawn), the survivor count [4] is reported as 0 of 6 and the survivor count (dose: 400.0 mg/kg/injection, schedule: Q04DX003 (ip), vehicle: Klucel (hydroxypropylcellulose) (HPC)) is reported as 0 of 6.
`O=C(/C=C(\CN1CCCCC1)c1ccccc1)c1ccccc1` was tested, and the survivor count (dose: 200.0 mg/kg/injection, schedule: Q04DX003 (ip), vehicle: Klucel (hydroxypropylcellulose) (HPC)) was 5 of 6.
In the case of `Clc1ccc(C2=Nc3cccc4cccc(c34)N2)cc1Cl`, the survivor count (dose: 120.0 mg/kg/injection, schedule: Q01DX Z (ip), vehicle: saline) is reported as 6 of 6.
With `C/C(=C\Cl)C(=O)O` the survivor count (dose: 400.0 mg/kg/injection, schedule: Q04DX003 (ip), vehicle: saline) was 1 of 6.
With `CCCC(C(=O)OCCN(CC)CC)(c1ccccc1)c1ccccc1` the survivor count (dose: 100.0 mg/kg/injection, schedule: Q01DX009 (ip), vehicle: saline) was 0 of 6 and the survivor count (dose: 200.0 mg/kg/injection, schedule: Q04DX003 (ip), vehicle: saline) was 0 of 4.
`COc1ccc(C(=O)C=C(C(F)(F)F)C(F)(F)F)cc1` was tested, and the survivor count (dose: 200.0 mg/kg/injection, schedule: Q04DX003 (ip), vehicle: saline with Tween-80) was 6 of 6 and the survivor count (dose: 400.0 mg/kg/injection, schedule: Q04DX003 (ip), vehicle: saline with Tween-80) was 3 of 6.
For `Cc1cccc(Nc2cc(N)nc(N)n2)c1`, the survivor count (dose: 25.0 mg/kg/injection, schedule: Q01DX Z (ip), vehicle: methylcellulose (MC)) was 5 of 6, the survivor count (dose: 100.0 mg/kg/injection, schedule: Q01DX Z (ip), vehicle: methylcellulose (MC)) was 0 of 6 and the survivor count [1] was 0 of 6.
For `NC(CSC(c1ccccc1)(c1ccccc1)c1ccc(Br)cc1)C(=O)O` (stereo not drawn), the T/C (dose: 6.25 mg/kg/injection, schedule: Q01DX009 (ip), vehicle: saline) was 138 % of control [5 of 6 alive], the T/C (dose: 12.5 mg/kg/injection, schedule: Q01DX009 (ip), vehicle: saline) was 142 % of control and the T/C (dose: 25.0 mg/kg/injection, schedule: Q01DX009 (ip), vehicle: saline) was 125 % of control. For the same compound, the survivor count (dose: 50.0 mg/kg/injection, schedule: Q01DX009 (ip), vehicle: saline) was 1 of 8 and the survivor count [3] was 0 of 6.
`CC(C)(C)Sc1cc(C#N)ccn1` was tested, and the T/C (dose: 100.0 mg/kg/injection, schedule: Q04DX003 (ip), vehicle: other) was 89, 95, 96, 102 % of control, the T/C (dose: 200.0 mg/kg/injection, schedule: Q04DX003 (ip), vehicle: other) was 91, 96, 99, 126 % of control and the T/C (dose: 400.0 mg/kg/injection, schedule: Q04DX003 (ip), vehicle: other) was 93, 95, 96, 105 % of control.
In the case of `C/C=C/C=C/COC(=O)CCCCCCC`, the T/C (dose: 100.0 mg/kg/injection, schedule: Q04DX002 (ip), vehicle: saline) is reported as 125 % of control.
`CNc1cc(C(C)C)ccc1C` was tested, and the survivor count (dose: 100.0 mg/kg/injection, schedule: Q01DX009 (ip), vehicle: Klucel (hydroxypropylcellulose) (HPC)) was 1 of 6, the survivor count [4] was 0 of 6 and the survivor count (dose: 400.0 mg/kg/injection, schedule: Q01DX009 (ip), vehicle: Klucel (hydroxypropylcellulose) (HPC)) was 0 of 6.

Reference: PubChem BioAssay AID248 (DTP/NCI, 2004)
